# Paper PMC11216564
# The chains behind the UniProt entries cited, without tags or fusion partners. Residues count along the entry.
# UniProt P41746, residues 19-159: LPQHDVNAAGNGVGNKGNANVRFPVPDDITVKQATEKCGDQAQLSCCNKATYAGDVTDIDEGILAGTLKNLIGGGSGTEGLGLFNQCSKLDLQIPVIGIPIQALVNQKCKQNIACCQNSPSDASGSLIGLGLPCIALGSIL
# UniProt P13591, residues 20-718: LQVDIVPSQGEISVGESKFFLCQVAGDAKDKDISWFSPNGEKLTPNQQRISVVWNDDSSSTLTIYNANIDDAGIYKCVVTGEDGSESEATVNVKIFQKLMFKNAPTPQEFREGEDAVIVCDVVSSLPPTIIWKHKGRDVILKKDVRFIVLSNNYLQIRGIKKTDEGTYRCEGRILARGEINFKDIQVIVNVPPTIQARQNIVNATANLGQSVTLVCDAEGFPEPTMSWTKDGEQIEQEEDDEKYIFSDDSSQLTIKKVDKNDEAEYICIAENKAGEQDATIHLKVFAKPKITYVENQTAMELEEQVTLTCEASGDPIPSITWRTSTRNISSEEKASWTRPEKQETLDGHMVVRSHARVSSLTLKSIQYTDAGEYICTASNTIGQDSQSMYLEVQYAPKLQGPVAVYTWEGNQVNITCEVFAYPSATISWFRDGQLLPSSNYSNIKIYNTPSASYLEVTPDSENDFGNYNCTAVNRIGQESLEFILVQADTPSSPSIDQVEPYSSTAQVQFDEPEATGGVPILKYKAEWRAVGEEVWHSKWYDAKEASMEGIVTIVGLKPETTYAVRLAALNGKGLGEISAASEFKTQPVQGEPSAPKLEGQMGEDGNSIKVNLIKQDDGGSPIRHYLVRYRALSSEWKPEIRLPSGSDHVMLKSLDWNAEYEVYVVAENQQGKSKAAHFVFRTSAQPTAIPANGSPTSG
# Results are given in words; binding and its absence hold for the method and conditions named.
# Molecular target: RodA protein (surface rodlet protein/hydrophobin) (Aspergillus fumigatus) (UniProt P41746)
# Assay: ELISA; fungal cell-wall components coated on 96-well microtiter plates (10 ug/well stated for polysaccharides) overnight at RT; blocked with PBS + 1% BSA; recombinant CD56 0.1 mg/mL in PBS + 1% BSA, RT, 1 h; detected with anti-CD56 antibody and peroxidase-conjugated anti-mouse IgG, OD 492 nm; both …
substance,measurement,value
recombinant CD56 protein (from UniProt P13591 20-718) (receptor),binding,no binding (tested: 0.1 mg/mL)
